PMC7901959
No constants are given. Whether binding was seen depends on the method and setting. In cells and extracts the contact can be indirect. Some binding calls cover weakened binding; strength is not graded here.

Protein sequences, listed by entry. Tags and fused reporters are not part of them.
UniProt Q9C030: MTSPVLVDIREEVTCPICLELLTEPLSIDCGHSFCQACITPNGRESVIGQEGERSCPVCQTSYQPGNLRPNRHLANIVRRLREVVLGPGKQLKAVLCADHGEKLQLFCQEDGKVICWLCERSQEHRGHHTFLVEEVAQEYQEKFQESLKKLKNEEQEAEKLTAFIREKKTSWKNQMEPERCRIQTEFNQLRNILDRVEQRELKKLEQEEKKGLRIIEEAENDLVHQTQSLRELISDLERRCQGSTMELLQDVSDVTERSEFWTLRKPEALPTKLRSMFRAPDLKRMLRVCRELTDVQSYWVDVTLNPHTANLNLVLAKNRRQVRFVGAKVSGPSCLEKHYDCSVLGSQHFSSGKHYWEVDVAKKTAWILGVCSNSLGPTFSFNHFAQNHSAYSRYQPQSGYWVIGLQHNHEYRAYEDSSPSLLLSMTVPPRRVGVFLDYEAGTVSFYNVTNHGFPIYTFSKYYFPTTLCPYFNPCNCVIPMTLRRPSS

Molecular target: TRIM6 in cell lysate (co-IP) (human) (UniProt Q9C030)
Test: co-IP; cell lysates incubated with anti-TRIM6, anti-TSC1, anti-TSC2 or control IgG for 1 h at 4°C, then protein A/G-agarose for 3 h at 4°C; washed three times in lysis buffer; western blot

B1: TSC1 in cell lysate (co-IP) (protein, UniProt Q92574 1-1164)
chain: MAQQANVGELLAMLDSPMLGVRDDVTAVFKENLNSDRGPMLVNTLVDYYLETSSQPALHILTTLQEPHDKHLLDRINEYVGKAATRLSILSLLGHVIRLQPSWKHKLSQAPLLPSLLKCLKMDTDVVVLTTGVLVLITMLPMIPQSGKQHLLDFFDIFGRLSSWCLKKPGHVAEVYLVHLHASVYALFHRLYGMYPCNFVSFLRSHYSMKENLETFEEVVKPMMEHVRIHPELVTGSKDHELDPRRWKRLETHDVVIECAKISLDPTEASYEDGYSVSHQISARFPHRSADVTTSPYADTQNSYGCATSTPYSTSRLMLLNMPGQLPQTLSSPSTRLITEPPQATLWSPSMVCGMTTPPTSPGNVPPDLSHPYSKVFGTTAGGKGTPLGTPATSPPPAPLCHSDDYVHISLPQATVTPPRKEERMDSARPCLHRQHHLLNDRGSEEPPGSKGSVTLSDLPGFLGDLASEEDSIEKDKEEAAISRELSEITTAEAEPVVPRGGFDSPFYRDSLPGSQRKTHSAASSSQGASVNPEPLHSSLDKLGPDTPKQAFTPIDLPCGSADESPAGDRECQTSLETSIFTPSPCKIPPPTRVGFGSGQPPPYDHLFEVALPKTAHHFVIRKTEELLKKAKGNTEEDGVPSTSPMEVLDRLIQQGADAHSKELNKLPLPSKSVDWTHFGGSPPSDEIRTLRDQLLLLHNQLLYERFKRQQHALRNRRLLRKVIKAAALEEHNAAMKDQLKLQEKDIQMWKVSLQKEQARYNQLQEQRDTMVTKLHSQIRQLQHDREEFYNQSQELQTKLEDCRNMIAELRIELKKANNKVCHTELLLSQVSQKLSNSESVQQQMEFLNRQLLVLGEVNELYLEQLQNKHSDTTKEVEMMKAAYRKELEKNRSHVLQQTQRLDTSQKRILELESHLAKKDHLLLEQKKYLEDVKLQARGQLQAAESRYEAQKRITQVFELEILDLYGRLEKDGLLKKLEEEKAEAAEAAEERLDCCNDGCSDSMVGHNEEASGHNGETKTPRPSSARGSSGSRGGGGSSSSSSELSTPEKPPHQRAGPFSSRWETTMGEASASIPTTVGSLPSSKSFLGMKARELFRNKSESQCDEDGMTSSLSESLKTELGKDLGVEAKIPLNLDGPHPSPPTPDSVGQLHIMDYNETHHEHS
For B1, the binding was “binds”.
